Measurements reported in PubChem BioAssay AID602196 (INSERM, 2012)

Purpose: 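Knock-downs that protect lung cancer cells from cisplatin or sensitise them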
Cell system: human A549 lung cancer cells
Reagent: siRNA pair against human genes
Timing: 48 h transfection before cisplatin; time from cisplatin to read-out not stated
Treatment: cisplatin at a dose killing half of control-siRNA cells; exact dose and duration not given
Detection: 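Cisplatin cell death as a shift from the 50% death seen with control siRNA; siRNAs toxic or growth-blocking alone scored 0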
Direction: two-siRNA summed score (-2 to +2): higher = both siRNAs protect from cisplatin killing; -2 means both sensitise; mean protection from cisplatin (shift in death) and protection from cisplatin (shift in death), siRNA C and protection from cisplatin (shift in death), siRNA D: higher = protection from cisplatin killing
Call rule: 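Each siRNA scores 0 if harmful alone by LDH or WST-1, otherwise +1 if it reduces and -1 if it increases cisplatin killing; a gene is active when both siRNAs agree (sum +2 or -2)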
Calls: active = both siRNAs shift cisplatin killing the same way; inactive = no consistent shift, or siRNA harmful alone
Here is an unselected part of about 23,000 deposited reagents. 455 of them (2%) were called active. 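Active includes both protection and sensitisation; some change values fall well beyond the stated -50 to +50 range.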 A number with no mark means an inactive call. No sequences are given here. The record does not give: the amount of reagent.

no.	gene	two-siRNA summed score (-2 to +2)	mean protection from cisplatin (shift in death) (%)	protection from cisplatin (shift in death), siRNA C (%)	protection from cisplatin (shift in death), siRNA D (%)
1	ZNF7 (GeneID 7553)	1	10.1	5.4	14.8
2	LOC388819	1	13.1	7	19.1
3	PDE7B (GeneID 27115)	-1	-15	-14.6	-15.4
4	SORBS1 (GeneID 10580)	0	-10.5	-1.6	-19.5
5	SLC30A6 (GeneID 55676)	0	-3.1	-16.2	10
6	JPT2 (GeneID 90861)	1	6.8	13.2	0.3
7	IGDCC3 (GeneID 9543)	0	-0.1	-4	3.8
8	HELLS (GeneID 3070)	0	1.5	-2.7	5.7
9	SPARCL1 (GeneID 8404)	0	10.7	5.2	16.3
10	SREBF2 (GeneID 6721)	0	-7.2	-4.8	-9.6
11	XRCC6 (GeneID 2547)	1	6.8	-7.2	20.7
12	RAB11A (GeneID 8766)	0	8.4	15.2	1.6
13	BNIPL (GeneID 149428)	0	4.7	7.5	1.8
14	CETP (GeneID 1071)	0	-1.7	-9	5.6
15	TUBGCP5 (GeneID 114791)	-1	-5.1	-12.6	2.5
16	LOC440474	0	10.3	5.3	15.3
17	CA1 (GeneID 759)	0	-3	-0.5	-5.4
18	GRID1 (GeneID 2894)	0	-4.3	5.5	-14.1
19	CSF2RA (GeneID 1438)	0	-5.4	-0.6	-10.2
20	ACY3 (GeneID 91703)	-1	-3.2	-16.4	10
21	CSF2RB (GeneID 1439)	0	-4.6	-1.2	-7.9
22	PCCA (GeneID 5095)	-1	-15	-38.3	8.3
23	INO80 (GeneID 54617)	0	5.8	4.9	6.7

The list goes on (3 carried over from the part before).
no.	gene	two-siRNA summed score (-2 to +2)	mean protection from cisplatin (shift in death) (%)	protection from cisplatin (shift in death), siRNA C (%)	protection from cisplatin (shift in death), siRNA D (%)
21	CSF2RB (GeneID 1439)	0	-4.6	-1.2	-7.9
22	PCCA (GeneID 5095)	-1	-15	-38.3	8.3
23	INO80 (GeneID 54617)	0	5.8	4.9	6.7
24	EDRF1-DT (GeneID 399821)	1	12.6	2.3	22.9
25	AMD1 (GeneID 262)	1	10.5	15.8	5.1
26	ATP2A1 (GeneID 487)	0	6	11	1
27	LOC440753	1	11.2	18.5	3.8
28	TCTA (GeneID 6988)	0	5.4	-2.7	13.5
29	AVP (GeneID 551)	-1	-0.6	-8.6	7.3
30	AKIRIN2 (GeneID 55122)	0	9.2	3.6	14.9
31	LOC399933	1	14.8	9.8	19.7
32	RAB22A (GeneID 57403)	0	2.9	11.2	-5.3
33	STK11 (GeneID 6794)	2 (active)	24.7	25.3	24.2
34	LOC342599	0	9.6	17.9	1.2
35	LOC392084	0	6.6	-2.9	16.2
36	SEL1L (GeneID 6400)	0	-4.4	-2	-6.9
37	FRY (GeneID 10129)	0	10.3	1.3	19.4
38	LINC00971 (GeneID 440970)	0	9.7	8.8	10.6
39	TLX1 (GeneID 3195)	0	7.8	17	-1.4
40	PRPF38B (GeneID 55119)	0	7.4	3.4	11.4
41	ELMO1 (GeneID 9844)	0	13.9	1.3	26.4
42	HAPSTR2 (GeneID 389895)	0	5.5	9.8	1.1
43	NRAP (GeneID 4892)	-1	-11.8	-25.4	1.9
44	LOC400652	0	16.2	28.3	4.1
45	KRT12 (GeneID 3859)	-1	-13	-17.6	-8.4
46	CALHM3 (GeneID 119395)	0	1	4	-2
47	CZIB (GeneID 54987)	0	-1.2	7.2	-9.6
48	LOC440802	0	-7.7	-13.6	-1.7
49	LOC283202	0	-0.9	-3.6	1.9
50	DMBT1 (GeneID 1755)	0	0.3	2.2	-1.5
51	SLC6A4 (GeneID 6532)	0	4.4	9	-0.1
52	MEX3B (GeneID 84206)	0	-1.1	-3.3	1.1
53	WHRN (GeneID 25861)	0	11.2	2.6	19.8
54	STAG1 (GeneID 10274)	1	8.2	2.3	14
55	VAV1 (GeneID 7409)	1	5.8	-5.7	17.2
56	LRRC17 (GeneID 10234)	-1	-10.8	-9	-12.7
57	IFNB1 (GeneID 3456)	0	-6.1	-13.6	1.5
